Assay results reported in patent publication US7462347B2, “Fluorescent membrane intercalating probes” (priority 2000, dated 2008).
Some of these results come from one statement about several compounds together. At least one structure is not confirmed: it was looked up by name or label, or the drawing left a doubt.

Experiment: Solubility of FR/NIR probes in ethanol, water and Diluent C
Format: physicochemical
Procedure: Effects of the various combinations of asymmetrical and symmetrical alkyl chains and methene bridges on the solubility of the compounds of the present invention were examined. Compounds 8, 25, 13, 15 and 26 were all soluble in ethanol at concentrations≧1 mM. The more lipophilic probes 15 and 26, however, required sonication for a few minutes to achieve dissolution at 1 mM in ethanol. All example probes-were poorly soluble in water. Triplicate 1:50 dilutions of stock 1 mM probe solutions were made in either ethanol or test diluent. After 30 minutes at room temperature solutions were centrifuged at 10,000×g for 10 minutes to remove any microagregates and […] aliquots were transferred to 2.0 ml of ethanol for absorbance determinations. Based on the teachings of Leung et al. and on solubility specifications found on Sigma Certificates of Analysis for the commercial diluents (diluent supernatant absorbance at 30 minutes at least 60% of ethanol supernatant absorbance after 30 minutes), a preliminary specification at least 60% of the ethanol control was set as a surrogate for solubility sufficient to achieve cell labeling with S/N ratios greater than 100 and to minimize potential problems with brightness or reproducibility of labeling. None of the probes was as soluble after 30 minutes in Diluent C as PKH26 (86%±4% of ethanol control).

SMILES	solubility in ethanol	solubility retained in Diluent C after 30 minutes (Diluent C, 30 minutes)
CCCCCCCCCCCCCCCCCCCCCC[N+]1=C(/C=C/C=C/C=C2/N(CCCCCCCCCCCCCC)c3ccccc3C2(C)C)C(C)(C)c2ccccc21.[I-] [Compound 8]	≥ 1000 µM	–
CCCCCCCCCCCCCCCCCCCCCC[N+]1=C(/C=C/C=C/C=C2/N(CCCCCCCCCCCCCC)c3ccc4ccccc4c3C2(C)C)C(C)(C)c2c1ccc1ccccc21.[I-] [Compound 13]	≥ 1000 µM	greater than 55 % of solubility at T0
CCCCCCCCCCCCCCCCCCCCCC[N+]1=C(/C=C/C=C/C=C/C=C2/N(CCCCCCCCCCCCCC)c3ccc4ccccc4c3C2(C)C)C(C)(C)c2c1ccc1ccccc21.[I-] [Compound 15]	≥ 1000 µM	–
